Laboratory results reported in paper PMC2890605.
Results are given in words; binding and its absence hold for the method and conditions named. Binding seen in cells or lysates may run through a third protein.

Chains of the proteins cited; added tags and fusions are not shown.
UniProt P49790: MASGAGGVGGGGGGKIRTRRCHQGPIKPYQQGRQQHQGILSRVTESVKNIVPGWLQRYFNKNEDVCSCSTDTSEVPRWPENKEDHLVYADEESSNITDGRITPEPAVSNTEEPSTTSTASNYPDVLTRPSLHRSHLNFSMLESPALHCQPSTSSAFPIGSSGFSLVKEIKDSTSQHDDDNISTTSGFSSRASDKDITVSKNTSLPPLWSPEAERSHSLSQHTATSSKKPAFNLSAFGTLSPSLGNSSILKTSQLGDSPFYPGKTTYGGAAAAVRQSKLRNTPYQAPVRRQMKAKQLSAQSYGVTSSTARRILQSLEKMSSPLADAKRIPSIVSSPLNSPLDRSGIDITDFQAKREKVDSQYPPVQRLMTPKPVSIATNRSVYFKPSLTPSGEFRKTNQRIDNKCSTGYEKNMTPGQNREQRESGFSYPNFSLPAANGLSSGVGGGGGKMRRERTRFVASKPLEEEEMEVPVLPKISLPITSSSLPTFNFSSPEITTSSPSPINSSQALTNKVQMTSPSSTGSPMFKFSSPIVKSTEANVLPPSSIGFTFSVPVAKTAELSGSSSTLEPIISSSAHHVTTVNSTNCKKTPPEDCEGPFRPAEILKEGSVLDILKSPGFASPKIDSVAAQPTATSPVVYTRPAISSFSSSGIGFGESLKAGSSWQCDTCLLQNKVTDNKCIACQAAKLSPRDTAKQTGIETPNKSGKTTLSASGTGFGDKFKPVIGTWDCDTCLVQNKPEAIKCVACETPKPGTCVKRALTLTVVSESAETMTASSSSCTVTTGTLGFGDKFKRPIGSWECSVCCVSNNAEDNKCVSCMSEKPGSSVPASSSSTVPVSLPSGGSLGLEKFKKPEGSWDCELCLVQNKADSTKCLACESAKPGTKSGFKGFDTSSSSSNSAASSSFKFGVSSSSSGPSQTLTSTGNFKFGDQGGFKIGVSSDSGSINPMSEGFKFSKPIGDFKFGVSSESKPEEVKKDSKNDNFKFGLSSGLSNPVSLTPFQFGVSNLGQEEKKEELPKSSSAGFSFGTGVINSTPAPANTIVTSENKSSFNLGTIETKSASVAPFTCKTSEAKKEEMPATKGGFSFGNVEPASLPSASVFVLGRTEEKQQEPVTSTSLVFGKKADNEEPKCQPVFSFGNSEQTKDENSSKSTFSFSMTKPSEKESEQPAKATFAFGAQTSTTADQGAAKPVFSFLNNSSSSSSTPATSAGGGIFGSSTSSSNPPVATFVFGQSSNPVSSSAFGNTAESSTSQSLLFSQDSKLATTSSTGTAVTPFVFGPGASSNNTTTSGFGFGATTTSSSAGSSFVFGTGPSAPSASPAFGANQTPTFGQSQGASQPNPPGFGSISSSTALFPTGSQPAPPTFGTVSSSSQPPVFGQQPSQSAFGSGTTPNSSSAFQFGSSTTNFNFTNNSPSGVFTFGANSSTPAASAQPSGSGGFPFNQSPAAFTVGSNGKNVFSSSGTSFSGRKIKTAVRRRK
UniProt Q02224: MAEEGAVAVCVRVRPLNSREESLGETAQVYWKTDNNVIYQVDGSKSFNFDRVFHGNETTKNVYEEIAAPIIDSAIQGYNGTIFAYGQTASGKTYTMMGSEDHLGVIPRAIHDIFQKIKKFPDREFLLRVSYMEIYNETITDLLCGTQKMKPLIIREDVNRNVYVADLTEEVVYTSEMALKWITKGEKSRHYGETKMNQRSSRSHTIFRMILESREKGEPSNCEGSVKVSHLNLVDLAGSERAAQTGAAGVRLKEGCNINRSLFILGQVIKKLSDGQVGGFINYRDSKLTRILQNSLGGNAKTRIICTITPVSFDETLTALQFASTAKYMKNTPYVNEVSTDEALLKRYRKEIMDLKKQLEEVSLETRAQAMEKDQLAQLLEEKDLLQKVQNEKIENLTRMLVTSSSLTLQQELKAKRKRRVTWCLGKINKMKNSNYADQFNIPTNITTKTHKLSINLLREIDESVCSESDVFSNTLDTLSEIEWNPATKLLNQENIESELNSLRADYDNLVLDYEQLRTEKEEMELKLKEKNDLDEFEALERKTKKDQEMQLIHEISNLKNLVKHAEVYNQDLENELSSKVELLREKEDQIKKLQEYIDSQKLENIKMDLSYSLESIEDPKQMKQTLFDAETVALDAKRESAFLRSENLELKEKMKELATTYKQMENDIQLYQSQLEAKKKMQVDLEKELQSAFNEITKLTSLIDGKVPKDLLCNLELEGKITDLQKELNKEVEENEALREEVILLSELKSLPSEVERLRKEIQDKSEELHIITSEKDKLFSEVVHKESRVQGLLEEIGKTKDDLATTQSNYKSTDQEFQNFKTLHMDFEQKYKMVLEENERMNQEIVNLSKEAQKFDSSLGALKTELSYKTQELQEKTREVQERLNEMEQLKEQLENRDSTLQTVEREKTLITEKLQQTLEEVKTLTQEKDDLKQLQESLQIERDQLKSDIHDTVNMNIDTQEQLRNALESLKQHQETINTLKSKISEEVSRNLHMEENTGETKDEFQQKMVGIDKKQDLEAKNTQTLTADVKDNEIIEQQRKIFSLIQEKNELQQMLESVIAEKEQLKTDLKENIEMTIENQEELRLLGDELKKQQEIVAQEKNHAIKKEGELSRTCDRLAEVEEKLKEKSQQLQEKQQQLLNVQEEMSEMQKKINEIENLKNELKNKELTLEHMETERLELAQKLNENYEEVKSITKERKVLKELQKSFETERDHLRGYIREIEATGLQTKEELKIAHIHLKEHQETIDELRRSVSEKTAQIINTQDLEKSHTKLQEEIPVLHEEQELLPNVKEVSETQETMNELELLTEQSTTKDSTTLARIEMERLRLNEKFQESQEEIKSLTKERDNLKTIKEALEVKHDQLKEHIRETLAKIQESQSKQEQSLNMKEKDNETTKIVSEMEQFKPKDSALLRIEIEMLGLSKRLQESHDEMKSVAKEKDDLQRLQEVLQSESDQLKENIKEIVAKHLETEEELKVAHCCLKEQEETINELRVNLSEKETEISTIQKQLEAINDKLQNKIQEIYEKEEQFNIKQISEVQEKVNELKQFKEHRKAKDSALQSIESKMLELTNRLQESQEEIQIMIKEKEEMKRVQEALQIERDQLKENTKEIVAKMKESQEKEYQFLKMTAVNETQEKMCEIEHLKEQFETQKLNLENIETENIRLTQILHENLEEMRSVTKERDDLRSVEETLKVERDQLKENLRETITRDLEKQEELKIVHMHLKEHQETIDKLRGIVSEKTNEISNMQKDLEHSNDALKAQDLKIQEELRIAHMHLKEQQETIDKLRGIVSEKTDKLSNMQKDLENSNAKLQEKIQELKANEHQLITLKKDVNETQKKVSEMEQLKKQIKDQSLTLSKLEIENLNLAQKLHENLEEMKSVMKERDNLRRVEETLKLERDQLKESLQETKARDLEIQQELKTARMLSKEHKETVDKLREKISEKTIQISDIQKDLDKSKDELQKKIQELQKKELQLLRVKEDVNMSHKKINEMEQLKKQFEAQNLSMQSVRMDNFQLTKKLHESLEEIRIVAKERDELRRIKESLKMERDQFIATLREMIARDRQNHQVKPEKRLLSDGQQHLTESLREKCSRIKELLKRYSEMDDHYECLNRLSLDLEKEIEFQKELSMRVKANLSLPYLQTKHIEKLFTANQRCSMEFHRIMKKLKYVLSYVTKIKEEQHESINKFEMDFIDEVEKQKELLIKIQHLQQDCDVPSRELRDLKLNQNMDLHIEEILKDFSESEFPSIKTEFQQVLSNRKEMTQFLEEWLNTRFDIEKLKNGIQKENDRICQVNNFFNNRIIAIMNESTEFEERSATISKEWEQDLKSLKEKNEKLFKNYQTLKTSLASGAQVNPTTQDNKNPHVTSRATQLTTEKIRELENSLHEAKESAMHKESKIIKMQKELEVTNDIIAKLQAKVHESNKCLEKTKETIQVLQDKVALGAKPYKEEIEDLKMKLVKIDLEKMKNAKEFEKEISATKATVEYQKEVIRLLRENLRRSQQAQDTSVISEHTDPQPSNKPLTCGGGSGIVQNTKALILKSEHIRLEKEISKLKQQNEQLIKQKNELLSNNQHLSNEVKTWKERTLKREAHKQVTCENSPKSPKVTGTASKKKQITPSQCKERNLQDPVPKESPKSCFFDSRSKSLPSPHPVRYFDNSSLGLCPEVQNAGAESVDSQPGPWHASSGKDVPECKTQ

Molecular target: T1, Nup88 (human (endogenous in HeLa)) (UniProt Q99567)
T1 sequence: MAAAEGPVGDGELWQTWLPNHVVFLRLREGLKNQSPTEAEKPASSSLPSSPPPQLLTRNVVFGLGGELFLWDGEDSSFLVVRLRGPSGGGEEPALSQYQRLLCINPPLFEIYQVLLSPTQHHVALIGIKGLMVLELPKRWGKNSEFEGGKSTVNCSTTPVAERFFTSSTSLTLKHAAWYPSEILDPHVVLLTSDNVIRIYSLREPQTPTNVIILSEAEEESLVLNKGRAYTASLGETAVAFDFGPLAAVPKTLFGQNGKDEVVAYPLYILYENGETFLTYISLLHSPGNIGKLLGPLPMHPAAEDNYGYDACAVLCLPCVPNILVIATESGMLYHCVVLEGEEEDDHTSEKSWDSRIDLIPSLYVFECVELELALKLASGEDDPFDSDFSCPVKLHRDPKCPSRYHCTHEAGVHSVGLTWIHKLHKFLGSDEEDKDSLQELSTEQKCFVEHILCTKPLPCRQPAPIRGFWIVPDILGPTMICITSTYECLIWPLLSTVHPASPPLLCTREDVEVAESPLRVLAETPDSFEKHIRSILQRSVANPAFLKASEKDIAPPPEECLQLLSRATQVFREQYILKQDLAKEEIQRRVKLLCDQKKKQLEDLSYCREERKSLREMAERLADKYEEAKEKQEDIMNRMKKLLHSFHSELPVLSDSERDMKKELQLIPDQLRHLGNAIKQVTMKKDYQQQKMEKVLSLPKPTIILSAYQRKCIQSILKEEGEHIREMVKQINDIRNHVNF
Experiment: co-IP; immunoprecipitates from mitotic HeLa cell extracts with anti-Nup214, anti-Nup88 or nonspecific rabbit antibodies (IgG); SDS/PAGE and immunoblotting; 500 ul extract per immunoprecipitation

| Substance | binding |
| --- | --- |
| Nup153 (from UniProt P49790 1-1475) | no binding |
| CENP-E (from UniProt Q02224 1-2701) | no binding |
